Laboratory results reported in article PMC2597178.

Sequences of proteins named here, by UniProt entry; tags and fusion partners are left off. A change or cut given only in a name is not applied to a line headed by its entry.
UniProt A2D7B7: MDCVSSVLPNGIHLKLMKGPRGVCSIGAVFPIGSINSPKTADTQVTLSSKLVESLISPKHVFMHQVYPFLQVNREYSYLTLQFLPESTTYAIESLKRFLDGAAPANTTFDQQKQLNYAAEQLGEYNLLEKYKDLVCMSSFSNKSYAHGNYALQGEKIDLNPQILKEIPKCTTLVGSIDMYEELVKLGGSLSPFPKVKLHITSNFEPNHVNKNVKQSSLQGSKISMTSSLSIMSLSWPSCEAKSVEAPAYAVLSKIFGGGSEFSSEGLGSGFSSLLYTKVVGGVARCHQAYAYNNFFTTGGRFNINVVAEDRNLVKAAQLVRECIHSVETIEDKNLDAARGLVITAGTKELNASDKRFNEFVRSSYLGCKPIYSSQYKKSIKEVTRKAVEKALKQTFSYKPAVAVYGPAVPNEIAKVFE

Molecular target: Trichomonas vaginalis hydrogenosomal processing peptidase β subunit, βHPP-His (Trichomonas vaginalis) (UniProt A2ES04)
Assay: pull-down; lysates of E. coli expressing βHPP-His and non-tagged αHPP incubated 30 min on ice in 20 mM Tris, 20 mM NaCl (pH 8.6), 1 mM MnCl2; heterodimer purified on a nickel column under native conditions

Trichomonas vaginalis hydrogenosomal processing peptidase α subunit, non-tagged αHPP (from UniProt A2D7B7)
binding: binds

No constants are given. Whether binding was seen depends on the method and setting. Binding seen in cells or lysates may run through a third protein. A result given as binding can be weak or reduced; the word gives no strength.
